Experimental data taken from patent US20040005311A1, “Dietary supplement compositions” (priority 2003, published 2004).

System: Alzheimer's disease-related / dementia-related symptoms
Assay: Dietary supplementation of dementia subjects (case accounts by caregiver and physician)
Format: in vivo, human
Conditions: Subject #2, dementia-type disease; initially placed on the prescription drug

In the case of `COc1cc2c(cc1OC)C(=O)C(CC1CCN(Cc3ccccc3)CC1)C2` (stereo not shown) [Aricept], the confusion is reported as “observed to become more confused”.
